From PubChem BioAssay AID493014 (National Center for Advancing Translational Sciences (NCATS), 2011)
The list shows a part of the results. Further columns of the screen follow, without active or inactive calls. Compounds called inactive in the main read-out are mostly missing here. Potencies come from curve fits of mixed quality, noted in brackets.

Assay: qHTS Assay to Find Inhibitors of Chronic Active B-Cell Receptor Signaling
Conditions: ABC-DLBCL IkBa-CBG/CBR reporter, luminescence ratio (green luciferase fused to IkBa over red control in TMD8 lymphoma cells), 4 h
Source text: NIH Molecular Libraries Probe Production Network [MLPCN] NIH Chemical Genomics Center [NCGC] MLPCN Grant: 1 R03 DA031086-01A1 PI Name: Dr. R. Eric Davis NCGC Assay Overview: Diffuse large B-cell lymphoma (DLBCL) is the most common category of non-Hodgkin lymphoma, with ~20,000 new cases per year in the United States. DLBCL should be regarded as a collection of different neoplasms. Microarray gene expression analysis has defined two principal types of DLBCL, named for their similarity to normal B cell stages or activation states: a germinal center B-cell (GCB) type, and an activated B-cell (ABC) type. In ABC-DLBCL, a constitutive high-level activity of the NF-kappaB family of transcription factors has been observed (1) and NF-kappaB target genes are more highly expressed in ABC primary tumors than in GCB tumors. Functional studies have shown a constitutive high-level activity of the IkappaB (inhibitor of kappa-B) kinase (IKK) complex. […] Further analysis of DLBCL primary tumors for NF-kappaB target gene expression imply that although CARD11 is required for constitutive IKK activity in all ABC-DLBCL lines, mutations in CARD11 may be the root cause of IKK activation only in lines or tumors with such mutations. In other words, CARD11 mutations may explain NF-kappaB activation in only 10% of ABC-DLBCL cases. […] This process has been termed 'chronic active BCR signaling' (CABS). The goal of this screen is to find small-molecule inhibitors of the CABS pathway found in ABC-DLBCL lines using a cell-based assay that measures IkappaBalpa stability, which has already been extensively validated in the OCI-Ly3 line (PubChem AID:445; REF: 4). […] The assay uses green (CBG68) and red (CBR) emitting beetle luciferases [Chroma-GloTM developed by Promega Corp.] where the green luciferase is fused to IkappaBalpha and the red luciferase is present in its native state. Both luciferase genes are stably present in the TMD8 human ABC DLBCL cell line, but their expression is under the control of tetracycline-inducible promoters. Following the addition of doxycycline to induce expression of the luciferases, the green luminescence in control cultures rises only slowly because the CBG fusion partner IkappaBalpha is targeted by IKK activity for rapid degradation. In contrast, green luminescence rises rapidly in the presence of proteasome inhibitors or IKK inhibitors. The rise in red luminescence of CBR is not affected by proteasome or IKK inhibitors, and serves as normalization for cell number and nonspecific effects. Compounds were screened as a concentration-titration series that ranged from 46 uM to 3 nM.
NCGC Assay Protocol Summary: Cells were seeded in 1536-well plates at 5000 cells/4uL in IMDM medium containing 0.5% FBS, w/o phenol red, 1% penicillin/streptomycin. Then, 23 nL of compounds or DMSO were delivered to each well using a pin tool. One uL 20ng/ml doxycycline was then dispensed into white solid 1536-well plates and the plates were incubated at 37C/5% C02 in a cell incubator for 4 hrs. Then 4 uL luminescent substrate mix (in-house prepared: 150 mM Tris-Cl, pH 7.6, 3 mM MgCl2, 1% Triton X-100, 5 mM DTT, 0.2 mM CoA, 0.15 mM ATP, 5 mM D-luciferin, final concentrations) was added to each well. The plate was incubated at r.t. for 10-15 min. The plates were measured on a ViewLux plate reader for green luminescence (540/20 nm filter) and red luminescence (618/8 nm filter). The green and red luminescent signals were corrected for red and green luminescence filter overlap using previously determined filter calibration constants (determined using the procedure outlined in the Promega Technical Manual; REF 4). The %Activity was determined from the ratio of corrected green/red luminescent values. MG132 were used as control. […] Red luminescent %Activity was normalized to the difference between red luminesence in basal cells (0%Activity) and zero luminescence (-100% Activity). […]

[1] = measured here: CBR red luminescence, cell number
[2] = measured here: IkBa-CBG green luminescence

Row | Structure (SMILES) | AC50 [1] | AC50 [2]
1 | CCOCCCNC(=O)C1CCCN(S(=O)(=O)CC)C1 (stereo not drawn) | 6.51 µM [falling, single point] | –
2 | CCOC(=O)c1[nH]c2ccccc2c1CCCN1C(=O)c2ccccc2C1=O | 15.8 µM [falling, single point] | –
3 | O=C(NC(=S)NNC(=O)c1ccccc1O)c1cccs1 | 7.08 µM [falling, partial curve] | –
4 | CN(CC1CCCO1)S(=O)(=O)c1ccc(C(=O)Nc2nnc(-c3ccccc3)o2)cc1 (stereo not drawn) | 35.5 µM [falling, single point] | –
5 | CC(C)CC(=O)Nc1ccc(C(=O)COC(=O)Cc2n[nH]c(=O)c3ccccc23)cc1 | 16.4 µM [rising, single point] | –
6 | C=CC[C@@H](CC(=O)N(CCO)Cc1ccccc1)C(=O)N[C@H](COC(=O)[C@@H](CC=C)Cc1ccc(F)cc1)c1ccccc1 | 29.1 µM [falling, single point] | –
7 | CCOC(=O)/C(C#N)=C/C1=C(N2CCCC2)CC(C)(CC)OC1 (stereo not drawn) | 3.66 µM [falling, single point] | –
8 | O=C(NCCCCc1ccccc1)c1ccccc1 | 12.6 µM [falling, partial curve] | –
9 | Cc1cccc(NC(=S)NNC(=O)c2ccco2)c1 | 18.4 µM [falling, single point] | –
10 | Cc1ccc(C)c(NC(=O)c2cc(-c3cc(C)ccc3O)n[nH]2)c1 | 10 µM [falling, partial curve] | –
11 | CCc1nc(NCCC(C)C)c2nnn(Cc3ccccc3)c2n1 | 7.94 µM [rising, partial curve, poor fit] | –
12 | COc1cc2[nH]c(=S)n(N(C(C)=O)C(C)=O)c(=O)c2cc1OC | 29.1 µM [rising, single point] | –
13 | CC(C)c1nc2c(c(=O)c3ccccc3n2C)c(=O)n1-c1ccc(F)cc1 | 10.3 µM [falling, partial curve, poor fit] | –
14 | Cc1cc(C)c(OCCN2C(=O)NC(C)(C)C2=O)c(Cl)c1 | 18.4 µM [rising, single point] | –
15 | Nc1ccc(OC(=O)Nc2ccc(O)cc2)cc1 | 35.5 µM [rising, single point] | 25.1 µM [falling, single point]
16 | O=C1NC(=O)C(Cc2ccccc2)(c2cccnc2)N1 (stereo not drawn) | 3.98 µM [falling, full curve] | –
17 | CNS(=O)(=O)c1ccc(NC(=O)c2ccccn2)cc1 | 16.4 µM [falling, single point] | –
18 | COc1ccccc1/C=C/C(=O)N1CCN(S(=O)(=O)c2cccs2)CC1 | 4.61 µM [rising, single point] | –
19 | CC1=C(C(=O)Nc2ccccc2)C(c2ccncc2)C(C#N)=C(SCC(=O)NC(C)C)N1 (stereo not drawn) | 4.11 µM [rising, full curve] | –
20 | COc1ccc(C(=O)Nc2ccc(SC(F)F)cc2)cc1 | 0.461 µM [rising, full curve] | –
21 | O=C(O)C(=O)/C(=C\c1cccc2ccccc12)c1ccc2ccccc2n1 | 29.1 µM [rising, partial curve, poor fit] | –

Some of the entries above in another layout.
Row	Structure (SMILES)	AC50 [1]	AC50 [2]
14	Cc1cc(C)c(OCCN2C(=O)NC(C)(C)C2=O)c(Cl)c1	18.4 µM [rising, single point]	–
15	Nc1ccc(OC(=O)Nc2ccc(O)cc2)cc1	35.5 µM [rising, single point]	25.1 µM [falling, single point]

Continuation.

Row | Structure (SMILES) | AC50 [1] | AC50 [2]
22 | COc1ccc(-c2csc(Nc3ncccc3C)n2)cc1 | 18.4 µM [falling, partial curve] | –
23 | Cn1c2ccc(F)cc2c2ncn(CCCN(CCO)CCO)c(=O)c21 | 29.1 µM [falling, single point] | –
24 | O=C1C(=O)N(CCN2CCOCC2)C(c2ccc(Cl)cc2)/C1=C(/O)c1ccc(S(=O)(=O)N2CCOCC2)cc1 (stereo not drawn) | 3.16 µM [rising, single point] | –
25 | Cc1cc(NC(=O)c2ccc(Cl)cc2)n(-c2ccccc2)n1 | 5.62 µM [falling, single point] | –
26 | Cc1nnc2sc(-c3ccc(N(C)C)cc3)nn2c1=O | 11.2 µM [falling, single point] | –
27 | CCc1ccc(NC(=O)c2cc(C)on2)cc1 | 22.4 µM [falling, single point] | –
28 | Cc1cccc(NC(=O)C(=O)NCc2ccccn2)c1 | 6.31 µM [falling, partial curve] | –
29 | O=C(Nc1ccccc1O)c1ccc(C(=O)c2ccccc2)o1 | 11.2 µM [falling, partial curve] | –
30 | CCCCOc1ccc(C(=O)Nc2cc(C)c(OCC(=O)N3CCOCC3)c(C)c2)cc1 | 16.4 µM [falling, partial curve, poor fit] | –
31 | c1ccc(N2CCN(Cc3ccnc4ccccc34)CC2)cc1 | 1.46 µM [rising, partial curve, poor fit] | 29.1 µM [falling, single point]
32 | COc1ccc(-c2nc(SCc3ccccc3)n(S(C)(=O)=O)n2)cc1 | 14.1 µM [rising, partial curve] | –
33 | O=C(NCc1ccco1)c1cc(Cl)nc(Cl)c1 | 0.708 µM [falling, full curve, poor fit] | –
34 | COc1ccc2nc(NC(=O)C3CCN(C(=O)c4ccc(F)cc4)CC3)sc2c1 | 14.1 µM [falling, single point] | –
35 | COc1ccc(NC(=O)CSc2nnc3ccc(-c4ccccn4)nn23)cc1 | 23.1 µM [falling, single point] | –
36 | C[C@H]1CN([C@@H](C)CO)C(=O)Cc2cc(NC(=O)CCC(F)(F)F)ccc2O[C@H]1CN(C)S(=O)(=O)c1ccc(Cl)cc1 | 9.2 µM [rising, partial curve] | –
37 | Cc1cc(S(=O)(=O)Nc2ccc3c(c2)n(C)c(=O)n3C)ccc1F | 15.8 µM [rising, partial curve] | –
38 | COCCNC(=O)c1c(N)n(-c2cccc(C)c2)c2nc3ccccc3nc12 | 35.5 µM [falling, single point] | –
39 | O=C(CSc1ncnc2ccccc12)c1ccc2c(c1)OCCO2 | 2.59 µM [falling, full curve, poor fit] | –
40 | CC(C)(C)C1COc2ccccc2N1C(=O)c1ccccc1Cl (stereo not drawn) | 35.5 µM [rising, single point] | –
41 | OC1O[C@H](c2ccc3c(c2)OCO3)[C@H]2CO[C@H](c3ccc4c(c3)OCO4)[C@@H]12 (stereo partly drawn) | 4.47 µM [falling, partial curve, poor fit] | –
